Measurements taken from the supplement of paper PMC10032668.
Some of the results follow. Only hits are listed; about a third recur on repeated control peptides.

Amino acid sequences for entries named in this document (tags omitted).
IDH1, O75874, UniProt O75874, whole entry: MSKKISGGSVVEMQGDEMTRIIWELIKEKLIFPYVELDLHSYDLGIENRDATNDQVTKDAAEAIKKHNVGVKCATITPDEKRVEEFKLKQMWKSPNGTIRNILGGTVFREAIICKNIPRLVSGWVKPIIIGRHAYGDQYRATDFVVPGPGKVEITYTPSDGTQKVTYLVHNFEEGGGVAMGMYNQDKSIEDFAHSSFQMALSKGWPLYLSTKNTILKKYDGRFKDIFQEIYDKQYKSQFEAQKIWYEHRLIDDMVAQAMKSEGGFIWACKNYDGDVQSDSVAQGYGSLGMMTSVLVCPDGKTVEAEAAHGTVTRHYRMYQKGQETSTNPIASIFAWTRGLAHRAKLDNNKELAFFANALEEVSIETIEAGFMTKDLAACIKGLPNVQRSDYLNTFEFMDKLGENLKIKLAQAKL
IK, Q13123, UniProt Q13123, whole entry: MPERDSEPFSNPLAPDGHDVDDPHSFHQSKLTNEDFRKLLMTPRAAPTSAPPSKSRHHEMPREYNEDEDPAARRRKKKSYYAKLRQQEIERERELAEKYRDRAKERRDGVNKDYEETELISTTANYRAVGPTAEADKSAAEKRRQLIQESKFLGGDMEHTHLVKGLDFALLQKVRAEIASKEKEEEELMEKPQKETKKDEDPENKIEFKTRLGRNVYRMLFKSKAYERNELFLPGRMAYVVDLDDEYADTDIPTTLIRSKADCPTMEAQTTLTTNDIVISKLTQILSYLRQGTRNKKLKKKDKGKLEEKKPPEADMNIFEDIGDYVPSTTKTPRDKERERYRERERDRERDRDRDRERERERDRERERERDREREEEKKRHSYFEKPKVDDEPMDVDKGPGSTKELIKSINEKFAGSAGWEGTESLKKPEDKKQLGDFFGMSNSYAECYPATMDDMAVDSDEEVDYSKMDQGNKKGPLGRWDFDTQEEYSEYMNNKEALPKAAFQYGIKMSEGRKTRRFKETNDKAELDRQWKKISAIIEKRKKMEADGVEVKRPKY
NELFE, P18615, UniProt P18615, whole entry: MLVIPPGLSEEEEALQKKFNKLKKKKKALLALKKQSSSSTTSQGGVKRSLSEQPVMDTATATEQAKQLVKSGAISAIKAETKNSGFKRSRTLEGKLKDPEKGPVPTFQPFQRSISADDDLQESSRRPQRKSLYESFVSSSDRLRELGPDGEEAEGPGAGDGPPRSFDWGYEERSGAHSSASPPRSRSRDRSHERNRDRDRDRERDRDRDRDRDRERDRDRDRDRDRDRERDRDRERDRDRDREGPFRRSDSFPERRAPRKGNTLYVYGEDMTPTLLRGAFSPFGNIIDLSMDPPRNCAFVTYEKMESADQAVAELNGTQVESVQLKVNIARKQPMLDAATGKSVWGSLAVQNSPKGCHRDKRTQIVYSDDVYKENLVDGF
MECP2, P51608, UniProt P51608, whole entry: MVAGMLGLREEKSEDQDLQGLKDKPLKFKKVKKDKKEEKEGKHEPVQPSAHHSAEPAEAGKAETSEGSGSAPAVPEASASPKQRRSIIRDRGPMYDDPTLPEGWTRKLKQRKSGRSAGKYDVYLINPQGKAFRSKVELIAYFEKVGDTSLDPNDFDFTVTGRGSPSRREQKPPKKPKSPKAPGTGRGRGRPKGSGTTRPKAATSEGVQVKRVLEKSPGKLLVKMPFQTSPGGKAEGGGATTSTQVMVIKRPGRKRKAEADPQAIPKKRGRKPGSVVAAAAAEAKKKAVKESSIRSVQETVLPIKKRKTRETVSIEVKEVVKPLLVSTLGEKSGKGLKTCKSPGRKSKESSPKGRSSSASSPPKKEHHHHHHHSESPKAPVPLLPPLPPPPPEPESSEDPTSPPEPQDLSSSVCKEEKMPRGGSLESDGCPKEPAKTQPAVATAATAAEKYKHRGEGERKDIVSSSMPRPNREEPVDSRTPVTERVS
NDUFA11, Q86Y39, UniProt Q86Y39, whole entry: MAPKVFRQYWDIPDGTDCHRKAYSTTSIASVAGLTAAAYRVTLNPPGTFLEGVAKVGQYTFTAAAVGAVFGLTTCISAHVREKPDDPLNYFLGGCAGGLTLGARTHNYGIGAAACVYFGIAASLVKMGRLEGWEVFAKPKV
RUVBL2, Q9Y230, UniProt Q9Y230, whole entry: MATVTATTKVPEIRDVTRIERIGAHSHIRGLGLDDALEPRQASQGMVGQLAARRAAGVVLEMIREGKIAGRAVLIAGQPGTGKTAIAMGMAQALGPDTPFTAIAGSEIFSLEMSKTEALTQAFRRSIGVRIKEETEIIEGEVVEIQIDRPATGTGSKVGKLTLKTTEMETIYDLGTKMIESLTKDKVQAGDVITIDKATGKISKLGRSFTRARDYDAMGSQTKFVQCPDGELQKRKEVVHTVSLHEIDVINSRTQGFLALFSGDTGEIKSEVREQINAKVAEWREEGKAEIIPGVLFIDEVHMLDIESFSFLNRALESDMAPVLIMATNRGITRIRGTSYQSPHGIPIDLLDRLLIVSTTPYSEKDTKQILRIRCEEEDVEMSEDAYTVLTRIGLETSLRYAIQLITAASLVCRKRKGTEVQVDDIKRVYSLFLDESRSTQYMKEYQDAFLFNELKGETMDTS
USP9X, Q93008, UniProt Q93008, whole entry: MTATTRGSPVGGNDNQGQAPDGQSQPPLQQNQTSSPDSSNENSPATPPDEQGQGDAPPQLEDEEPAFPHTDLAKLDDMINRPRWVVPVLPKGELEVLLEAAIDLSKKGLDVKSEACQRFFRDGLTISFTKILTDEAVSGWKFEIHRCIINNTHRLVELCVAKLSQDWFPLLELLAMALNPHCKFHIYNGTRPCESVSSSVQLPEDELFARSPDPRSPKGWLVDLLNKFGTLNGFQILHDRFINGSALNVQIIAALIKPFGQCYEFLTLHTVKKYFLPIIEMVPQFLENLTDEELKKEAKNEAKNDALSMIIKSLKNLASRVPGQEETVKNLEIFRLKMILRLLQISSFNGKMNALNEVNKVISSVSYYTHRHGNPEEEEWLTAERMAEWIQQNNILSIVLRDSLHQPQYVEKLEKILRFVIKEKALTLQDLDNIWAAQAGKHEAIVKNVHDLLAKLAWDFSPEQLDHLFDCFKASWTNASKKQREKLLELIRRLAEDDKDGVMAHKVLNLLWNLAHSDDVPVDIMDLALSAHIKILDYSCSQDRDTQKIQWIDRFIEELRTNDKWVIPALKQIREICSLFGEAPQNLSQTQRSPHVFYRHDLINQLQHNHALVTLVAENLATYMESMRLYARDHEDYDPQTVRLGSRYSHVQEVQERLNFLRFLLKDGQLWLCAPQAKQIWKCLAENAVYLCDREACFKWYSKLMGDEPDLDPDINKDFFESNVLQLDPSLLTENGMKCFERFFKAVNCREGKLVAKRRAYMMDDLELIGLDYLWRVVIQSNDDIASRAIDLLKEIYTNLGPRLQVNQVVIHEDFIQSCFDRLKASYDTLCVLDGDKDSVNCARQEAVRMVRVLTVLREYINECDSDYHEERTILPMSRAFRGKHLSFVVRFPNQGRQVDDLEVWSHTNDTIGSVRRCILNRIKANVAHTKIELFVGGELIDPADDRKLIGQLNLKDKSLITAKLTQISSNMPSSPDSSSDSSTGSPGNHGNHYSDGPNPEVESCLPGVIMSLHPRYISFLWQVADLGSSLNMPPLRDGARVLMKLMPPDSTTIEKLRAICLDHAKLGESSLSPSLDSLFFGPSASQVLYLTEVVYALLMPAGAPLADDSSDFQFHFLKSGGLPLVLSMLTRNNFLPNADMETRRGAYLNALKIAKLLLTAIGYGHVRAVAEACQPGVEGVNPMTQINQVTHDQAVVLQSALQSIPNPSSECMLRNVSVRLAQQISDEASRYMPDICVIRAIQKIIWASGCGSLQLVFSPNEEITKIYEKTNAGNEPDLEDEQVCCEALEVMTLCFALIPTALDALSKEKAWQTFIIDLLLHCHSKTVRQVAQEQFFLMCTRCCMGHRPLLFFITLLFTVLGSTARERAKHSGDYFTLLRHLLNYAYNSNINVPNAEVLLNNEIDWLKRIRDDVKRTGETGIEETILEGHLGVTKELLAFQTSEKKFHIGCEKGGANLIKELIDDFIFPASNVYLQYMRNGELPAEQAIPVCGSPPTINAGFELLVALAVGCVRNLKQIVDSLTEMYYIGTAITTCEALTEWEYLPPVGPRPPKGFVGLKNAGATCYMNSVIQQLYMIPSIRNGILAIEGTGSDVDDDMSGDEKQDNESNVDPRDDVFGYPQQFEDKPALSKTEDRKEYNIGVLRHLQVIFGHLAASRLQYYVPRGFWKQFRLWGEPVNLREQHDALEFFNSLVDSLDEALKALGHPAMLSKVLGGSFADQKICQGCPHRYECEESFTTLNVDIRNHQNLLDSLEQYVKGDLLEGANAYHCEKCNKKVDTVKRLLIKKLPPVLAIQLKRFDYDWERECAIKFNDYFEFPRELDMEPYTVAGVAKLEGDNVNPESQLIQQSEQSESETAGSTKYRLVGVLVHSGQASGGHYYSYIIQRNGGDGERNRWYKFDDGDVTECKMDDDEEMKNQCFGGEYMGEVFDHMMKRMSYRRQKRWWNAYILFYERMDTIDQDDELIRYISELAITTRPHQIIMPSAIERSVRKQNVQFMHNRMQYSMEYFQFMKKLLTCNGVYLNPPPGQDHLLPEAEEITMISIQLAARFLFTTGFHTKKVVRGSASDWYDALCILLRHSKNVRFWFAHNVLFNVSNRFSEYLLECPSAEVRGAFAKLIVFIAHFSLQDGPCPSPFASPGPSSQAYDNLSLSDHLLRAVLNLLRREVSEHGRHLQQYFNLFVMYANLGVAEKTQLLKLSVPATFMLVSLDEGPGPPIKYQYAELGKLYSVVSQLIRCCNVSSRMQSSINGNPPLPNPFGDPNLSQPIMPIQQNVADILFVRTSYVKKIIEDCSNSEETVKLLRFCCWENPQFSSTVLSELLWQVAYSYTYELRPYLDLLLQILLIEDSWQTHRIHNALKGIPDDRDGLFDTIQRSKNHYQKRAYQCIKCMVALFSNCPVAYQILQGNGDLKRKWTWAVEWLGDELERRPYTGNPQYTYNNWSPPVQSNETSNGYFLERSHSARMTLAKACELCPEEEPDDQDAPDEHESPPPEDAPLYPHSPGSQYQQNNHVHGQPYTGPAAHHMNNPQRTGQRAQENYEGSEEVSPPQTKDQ
RPS6KA3, P51812, UniProt P51812, whole entry: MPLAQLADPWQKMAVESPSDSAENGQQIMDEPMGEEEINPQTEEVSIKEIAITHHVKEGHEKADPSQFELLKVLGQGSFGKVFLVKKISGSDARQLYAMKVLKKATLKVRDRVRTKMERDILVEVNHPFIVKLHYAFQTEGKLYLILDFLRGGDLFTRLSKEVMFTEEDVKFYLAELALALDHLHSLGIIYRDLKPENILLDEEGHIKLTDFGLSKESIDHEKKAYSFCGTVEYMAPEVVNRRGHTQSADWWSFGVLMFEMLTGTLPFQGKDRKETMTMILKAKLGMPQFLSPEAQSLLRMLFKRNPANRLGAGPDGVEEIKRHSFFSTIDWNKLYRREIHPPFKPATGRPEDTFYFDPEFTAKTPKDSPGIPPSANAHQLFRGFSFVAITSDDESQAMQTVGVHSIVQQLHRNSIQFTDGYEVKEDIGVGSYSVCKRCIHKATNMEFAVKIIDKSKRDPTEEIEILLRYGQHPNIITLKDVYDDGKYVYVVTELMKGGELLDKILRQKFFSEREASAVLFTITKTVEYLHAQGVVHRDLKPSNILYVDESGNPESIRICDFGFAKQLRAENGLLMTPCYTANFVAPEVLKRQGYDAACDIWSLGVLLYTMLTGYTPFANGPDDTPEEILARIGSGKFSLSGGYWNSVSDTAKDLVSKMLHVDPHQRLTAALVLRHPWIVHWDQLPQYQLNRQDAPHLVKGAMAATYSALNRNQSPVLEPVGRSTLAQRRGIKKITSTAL
NDUFA12, Q9UI09, UniProt Q9UI09, whole entry: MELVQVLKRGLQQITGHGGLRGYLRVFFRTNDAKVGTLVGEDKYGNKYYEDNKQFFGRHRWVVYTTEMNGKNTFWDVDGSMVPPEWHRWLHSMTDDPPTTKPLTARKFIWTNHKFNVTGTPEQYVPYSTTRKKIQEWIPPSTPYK
NUTF2, P61970, UniProt P61970, whole entry: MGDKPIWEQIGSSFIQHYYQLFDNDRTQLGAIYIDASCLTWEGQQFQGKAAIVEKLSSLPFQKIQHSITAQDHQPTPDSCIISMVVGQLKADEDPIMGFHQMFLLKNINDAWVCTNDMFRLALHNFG

Experiments:
Assay in all cases: PRISMA enrichment of interactor (LFQ) in peptide spot vs all other peptide spots (log2 fold change); higher = stronger / more specific binding of the interactor to the peptide
IDH1, O75874 = molecular target: IDH1, O75874
Protocol: (§1)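 PRISMA: 221 full-length sORF-encoded peptides (3-15 aa), plus SOS1/GLUT1 control peptides, were spot-synthesized on cellulose membranes in triplicate. Membranes were incubated with HEK293T lysate, and bound proteins were identified by LC-MS/MS with LFQ. Enrichment is the log2 fold change versus all other peptide spots; only significant interactors are listed (cutoff c=6, x0=2.8).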

MRPL57, Q9BQC6 = molecular target: MRPL57, Q9BQC6
Protocol: as §1

SPATS2, Q86XZ4 = molecular target: SPATS2, Q86XZ4
Protocol: as §1

STX5, Q13190 = molecular target: STX5, Q13190
Protocol: as §1

IK, Q13123 = molecular target: IK, Q13123
Protocol: as §1

LAMP1, P11279 = molecular target: LAMP1, P11279
Protocol: as §1

LYPLA1, O75608 = molecular target: LYPLA1, O75608
Protocol: as §1

ITGA6, P23229 = molecular target: ITGA6, P23229
Protocol: as §1

NELFE, P18615 = molecular target: NELFE, P18615
Protocol: as §1

PSMF1, Q92530 = molecular target: PSMF1, Q92530
Protocol: as §1

PSMG1, O95456 = molecular target: PSMG1, O95456
Protocol: as §1

KDM1A, O60341 = molecular target: KDM1A, O60341
Protocol: as §1

MECP2, P51608 = molecular target: MECP2, P51608
Protocol: as §1

MT-ATP8, P03928 = molecular target: MT-ATP8, P03928
Protocol: as §1

NDUFA11, Q86Y39 = molecular target: NDUFA11, Q86Y39
Protocol: as §1

KPNA6, O60684 = molecular target: KPNA6, O60684
Protocol: as §1

LGALS4, P56470 = molecular target: LGALS4, P56470
Protocol: as §1

MPHOSPH10, O00566 = molecular target: MPHOSPH10, O00566
Protocol: as §1

LIN7C, Q9NUP9 = molecular target: LIN7C, Q9NUP9
Protocol: as §1

TSNAX, Q99598 = molecular target: TSNAX, Q99598
Protocol: as §1

LSR, Q86X29 = molecular target: LSR, Q86X29
Protocol: as §1

RBM7, Q9Y580 = molecular target: RBM7, Q9Y580
Protocol: as §1

RUVBL2, Q9Y230 = molecular target: RUVBL2, Q9Y230
Protocol: as §1

SLC27A4, Q6P1M0 = molecular target: SLC27A4, Q6P1M0
Protocol: as §1

LYZ, P61626 = molecular target: LYZ, P61626
Protocol: as §1

RCN2, Q14257 = molecular target: RCN2, Q14257
Protocol: as §1

MARK2, Q7KZI7 = molecular target: MARK2, Q7KZI7
Protocol: as §1

POLD2, P49005 = molecular target: POLD2, P49005
Protocol: as §1

NAA50, Q9GZZ1 = molecular target: NAA50, Q9GZZ1
Protocol: as §1

RBM15, Q96T37 = molecular target: RBM15, Q96T37
Protocol: as §1

SDC4, P31431 = molecular target: SDC4, P31431
Protocol: as §1

SNU13, P55769 = molecular target: SNU13, P55769
Protocol: as §1

USP9X, Q93008 = molecular target: USP9X, Q93008
Protocol: as §1

NCOR2, Q9Y618 = molecular target: NCOR2, Q9Y618
Protocol: as §1

SCYL1, Q96KG9 = molecular target: SCYL1, Q96KG9
Protocol: as §1

MRPS15, P82914 = molecular target: MRPS15, P82914
Protocol: as §1

MRS2, Q9HD23 = molecular target: MRS2, Q9HD23
Protocol: as §1

NUDT16, Q96DE0 = molecular target: NUDT16, Q96DE0
Protocol: as §1

RRP9, O43818 = molecular target: RRP9, O43818
Protocol: as §1

NCDN, Q9UBB6 = molecular target: NCDN, Q9UBB6
Protocol: as §1

SSNA1, O43805 = molecular target: SSNA1, O43805
Protocol: as §1

RPS6KA3, P51812 = molecular target: RPS6KA3, P51812
Protocol: as §1

TPT1, P13693 = molecular target: TPT1, P13693
Protocol: as §1

YTHDC1, Q96MU7 = molecular target: YTHDC1, Q96MU7
Protocol: as §1

NDUFA10, O95299 = molecular target: NDUFA10, O95299
Protocol: as §1

NDUFA12, Q9UI09 = molecular target: NDUFA12, Q9UI09
Protocol: as §1

UBE2R2, Q712K3 = molecular target: UBE2R2, Q712K3
Protocol: as §1

POLDIP2, Q9Y2S7 = molecular target: POLDIP2, Q9Y2S7
Protocol: as §1

STAU2, Q9NUL3 = molecular target: STAU2, Q9NUL3
Protocol: as §1

WRNIP1, Q96S55 = molecular target: WRNIP1, Q96S55
Protocol: as §1

NSUN4, Q96CB9 = molecular target: NSUN4, Q96CB9
Protocol: as §1

NTMT1, Q9BV86 = molecular target: NTMT1, Q9BV86
Protocol: as §1

NUDT16L1, Q9BRJ7 = molecular target: NUDT16L1, Q9BRJ7
Protocol: as §1

NUTF2, P61970 = molecular target: NUTF2, P61970
Protocol: as §1

PDCD6, O75340 = molecular target: PDCD6, O75340
Protocol: as §1

SRI, P30626 = molecular target: SRI, P30626
Protocol: as §1

How did the “PRISMA enrichment of interactor (log2)” value (IDH1, O75874) turn out when MDVSTMERTVL [HIVEP2] was run?
Its value is 5.49.

And the “PRISMA enrichment of interactor (log2)” value (MRPL57, Q9BQC6)?
Its value is 5.33.

What about the “PRISMA enrichment of interactor (log2)” value (SPATS2, Q86XZ4) of the same binder?
Its value is 4.03.

What about the “PRISMA enrichment of interactor (log2)” value (STX5, Q13190) of the same binder?
The value was 5.68.

Which “PRISMA enrichment of interactor (log2)” value (IK, Q13123) does the source give for MSKEGVVG [CLCN3] here?
Its value is 5.11.

What about the “PRISMA enrichment of interactor (log2)” value (LAMP1, P11279) of the same binder?
The value was 5.38.

What about the “PRISMA enrichment of interactor (log2)” value (LYPLA1, O75608) of the same binder?
The value was 4.9.

How did the “PRISMA enrichment of interactor (log2)” value (ITGA6, P23229) turn out when MLRAEALPVT [KLF9] was run?
Its value is 7.82.

What about the “PRISMA enrichment of interactor (log2)” value (NELFE, P18615) of the same binder?
The value was 8.47.

What about the “PRISMA enrichment of interactor (log2)” value (PSMF1, Q92530) of the same binder?
The value was 4.01.

And the “PRISMA enrichment of interactor (log2)” value (PSMG1, O95456)?
The value was 5.2.

What does the source list for MARLL [MAST4]?
PRISMA enrichment of interactor (log2) (KDM1A, O60341): 5.2; PRISMA enrichment of interactor (log2) (MECP2, P51608): 4.67; PRISMA enrichment of interactor (log2) (MT-ATP8, P03928): 4.67; PRISMA enrichment of interactor (log2) (NDUFA11, Q86Y39): 4.45

Which “PRISMA enrichment of interactor (log2)” value (KPNA6, O60684) does the source give for MVLMGQVP [CRADD] here?
Its value is 5.9.

How did the “PRISMA enrichment of interactor (log2)” value (LGALS4, P56470) turn out when MVETRRKYE [ABCA8] was run?
Its value is 5.24.

And the “PRISMA enrichment of interactor (log2)” value (MPHOSPH10, O00566)?
Its value is 7.18.

Which results are given for MLEPPAGASGQQ [PGF]?
PRISMA enrichment of interactor (log2) (LIN7C, Q9NUP9): 4.75; PRISMA enrichment of interactor (log2) (TSNAX, Q99598): 4.72

For MRSNLIRETC [AASDH], which “PRISMA enrichment of interactor (log2)” value (LSR, Q86X29) is on record?
Its value is 4.94.

And the “PRISMA enrichment of interactor (log2)” value (RBM7, Q9Y580)?
Its value is 7.69.

What about the “PRISMA enrichment of interactor (log2)” value (RUVBL2, Q9Y230) of the same binder?
The value was 5.32.

What about the “PRISMA enrichment of interactor (log2)” value (SLC27A4, Q6P1M0) of the same binder?
The value was 4.73.

MVQAELRAIPR [TMEM184C] was tested. Which “PRISMA enrichment of interactor (log2)” value (LYZ, P61626) did it give?
Its value is 4.46.

And the “PRISMA enrichment of interactor (log2)” value (RCN2, Q14257)?
Its value is 6.42.

How did the “PRISMA enrichment of interactor (log2)” value (MARK2, Q7KZI7) turn out when MLAWSRN [PLXNB2] was run?
Its value is 4.49.

What about the “PRISMA enrichment of interactor (log2)” value (POLD2, P49005) of the same binder?
The value was 3.9.

MEVRKGNQLTQEPE [MGAT5] was tested. Which “PRISMA enrichment of interactor (log2)” value (MPHOSPH10, O00566) did it give?
The value was 5.44.

What about the “PRISMA enrichment of interactor (log2)” value (NAA50, Q9GZZ1) of the same binder?
The value was 4.78.

And the “PRISMA enrichment of interactor (log2)” value (RBM15, Q96T37)?
The value was 5.33.

What about the “PRISMA enrichment of interactor (log2)” value (SDC4, P31431) of the same binder?
Its value is 4.41.

And the “PRISMA enrichment of interactor (log2)” value (SNU13, P55769)?
The value was 5.62.

And the “PRISMA enrichment of interactor (log2)” value (USP9X, Q93008)?
Its value is 5.6.

What does the source list for MGCWVDGAGK [TRIM69]?
PRISMA enrichment of interactor (log2) (MPHOSPH10, O00566): 5.35; PRISMA enrichment of interactor (log2) (NCOR2, Q9Y618): 5.71; PRISMA enrichment of interactor (log2) (SCYL1, Q96KG9): 5.54

For MAGGV [GNB1], which “PRISMA enrichment of interactor (log2)” value (MRPS15, P82914) is on record?
Its value is 11.5.

What does the source list for MEIRGTGS [PPP1R12B]?
PRISMA enrichment of interactor (log2) (MRS2, Q9HD23): 5.79; PRISMA enrichment of interactor (log2) (NUDT16, Q96DE0): 5.42; PRISMA enrichment of interactor (log2) (RRP9, O43818): 5.01

MHRRMLAAQ [ADCY7] was tested. Which “PRISMA enrichment of interactor (log2)” value (NCDN, Q9UBB6) did it give?
The value was 5.17.

What about the “PRISMA enrichment of interactor (log2)” value (SSNA1, O43805) of the same binder?
Its value is 4.24.

MIFFKDGLEMEKC [NHSL2] was tested. Which “PRISMA enrichment of interactor (log2)” value (NCOR2, Q9Y618) did it give?
Its value is 5.41.

What about the “PRISMA enrichment of interactor (log2)” value (RPS6KA3, P51812) of the same binder?
The value was 4.42.

What about the “PRISMA enrichment of interactor (log2)” value (TPT1, P13693) of the same binder?
The value was 7.27.

What about the “PRISMA enrichment of interactor (log2)” value (YTHDC1, Q96MU7) of the same binder?
The value was 7.15.

Which “PRISMA enrichment of interactor (log2)” value (NDUFA10, O95299) does the source give for MRQFGICGRVAVAG [MFN1] here?
Its value is 7.54.

What does the source list for MLELK [C6orf62]?
PRISMA enrichment of interactor (log2) (NDUFA12, Q9UI09): 6.01; PRISMA enrichment of interactor (log2) (UBE2R2, Q712K3): 4.89

How did the “PRISMA enrichment of interactor (log2)” value (NELFE, P18615) turn out when MMRDLGTLLSPVCS [EI24] was run?
The value was 4.77.

What about the “PRISMA enrichment of interactor (log2)” value (POLDIP2, Q9Y2S7) of the same binder?
The value was 6.55.

What about the “PRISMA enrichment of interactor (log2)” value (STAU2, Q9NUL3) of the same binder?
The value was 5.64.

And the “PRISMA enrichment of interactor (log2)” value (WRNIP1, Q96S55)?
The value was 5.42.

With MAATILW [RAD23B] as the binder, how does the “PRISMA enrichment of interactor (log2)” value (NSUN4, Q96CB9) read?
Its value is 8.18.

MDETPKQRIQED [GCNT2] was tested. Which “PRISMA enrichment of interactor (log2)” value (NTMT1, Q9BV86) did it give?
The value was 6.22.

With MTALSW [NR1D1] as the binder, how does the “PRISMA enrichment of interactor (log2)” value (NUDT16L1, Q9BRJ7) read?
The value was 5.27.

What about the “PRISMA enrichment of interactor (log2)” value (NUTF2, P61970) of the same binder?
The value was 6.7.

And the “PRISMA enrichment of interactor (log2)” value (PDCD6, O75340)?
The value was 6.07.

And the “PRISMA enrichment of interactor (log2)” value (SRI, P30626)?
Its value is 4.7.
